Test results: PubChem BioAssay AID2685 (National Center for Advancing Translational Sciences (NCATS), 2010)
The other results are listed elsewhere or left out. The main result of the screen is listed elsewhere. These columns were measured beside it and carry no call. Most of these compounds were active or inconclusive in the main read-out, so they are no random draw. Words in brackets tell the shape of the fitted curve; partial curves, single points and poor fits give uncertain potencies.

Assay: qHTS Assay for Lipid Storage Modulators in Drosophila S3 Cells;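 on cell number change: cells counted by Cell Tracker Red CMTPX staining in the red channel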
Settings: BODIPY lipid droplet fluorescence, 18-24 h; for cell number change: measured here: cell count max response, cells fed with added oleic acid
Outline: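 Drosophila S3 cells got compounds at several concentrations plus oleic acid (400 uM solution). Laser-scanning cytometry with 488 nm excitation read lipid droplets at 500-530 nm and cells at 575-640 nm. Percent activity was relative to 20 uM Triacsin C.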

[1] = measured here: lipid fluorescence (Fed channel) AC50, cells fed with added oleic acid
[2] = measured here: cell number channel AC50, cells fed with added oleic acid

SMILES	AC50 [1]	cell number change	AC50 [2]
CN(C)S(=O)(=O)c1ccc(NC(=O)N2CCN(c3cccc(C(F)(F)F)c3)CC2)cc1	29.1 µM [falling, single point]		
O=C(NCC1CCCO1)C1CCCN(S(=O)(=O)c2cc(Cl)ccc2Cl)C1 (configuration not stated)	0.112 µM [rising, full curve, poor fit]	16.9%	
CC1CN(S(=O)(=O)c2ccc(NC(=O)c3ccco3)cc2)CC(C)O1 (configuration not stated)			5.17 µM [rising, single point]
COc1cc(OC)cc(C(=O)NCC(=O)Nc2ccc(C)c(Cl)c2)c1	0.58 µM [rising, single point]	-4.17%	
CCOC(=O)c1ccc(NC(=O)Nc2cc(C)cc(C)n2)cc1	14.6 µM [rising, single point]	23.7%	
CN(Cc1cccs1)C(=O)c1cc(S(=O)(=O)N2CCOCC2)ccc1N1CCCC1	5.8 µM [rising, partial curve]	-2.77%	
Clc1nc(CN2CCOCC2)nc2sc3c(c12)CCC3		20.9%	
Cc1cccc(-c2noc(CCC(=O)NCc3ccco3)n2)c1	16.4 µM [falling, partial curve]	-7.34%	
CCOC(=O)c1[nH]c(C)c(C(=O)NCc2ccc(OC)cc2)c1C	0.58 µM [rising, single point]	14.3%	
CCOC(=O)C1=C(C)N(C)C(=O)NC1c1ccc2c(c1)OCO2 (configuration not stated)	0.731 µM [rising, partial curve, poor fit]	20.2%	
CCn1c(SCC(=O)c2c[nH]c3ccccc23)nc2cc(S(=O)(=O)N3CCOCC3)ccc21	2.06 µM [rising, partial curve]	12.1%	
Cc1n[nH]c(=O)n1-c1ccc(C(C)(C)C)cc1	0.0058 µM [rising, full curve, poor fit]		
Cc1[nH]nc(N=CC2=C(O)CC(C)(C)CC2=O)c1-c1ccccc1	29.1 µM [rising, single point]	48.9%	29.1 µM [rising, single point]
O=C(CCl)NC(Cc1c[nH]c2ccc(OCc3ccccc3)cc12)C(=O)O (configuration not stated)	29.1 µM [rising, single point]	-12.6%	
O=C(CCCN1C(=O)/C(=C/c2ccccc2)SC1=S)Nc1ccccc1O			0.00461 µM [rising, full curve, poor fit]
CN1CCc2c(sc(NC(=O)CS(=O)(=O)c3ccc(F)cc3)c2C(N)=O)C1		18.5%	
O=[N+]([O-])c1ccc([C@H](O)[C@H](CO)N=Cc2ccccc2O)cc1	0.146 µM [falling, full curve]	-21.5%	0.0092 µM [falling, full curve, poor fit]
CCCCc1nc(SCC(=O)Nc2ccc(S(N)(=O)=O)cc2)n[nH]1	2.06 µM [falling, full curve]	-25.3%	
COCCN(CCOC)C(=O)CN1C(=O)NC2(CCCc3sccc32)C1=O (configuration not stated)	3.26 µM [falling, full curve, poor fit]	20.2%	

SMILES	AC50 [1]	cell number change	AC50 [2]
CC(C)CN(CC(C)C)C1=N/C(=C\c2ccco2)C(=O)N1c1ccccc1		43.8%	0.0651 µM [rising, full curve, poor fit]
NC(=O)COc1ccccc1C(=O)NC12CC3CC(CC(C3)C1)C2	23.1 µM [falling, single point]	11.3%	
CCCCc1ccc(-c2nc(NC(=O)C3C4CCC(O4)C3C(=O)O)sc2C)cc1 (configuration not stated)	3.26 µM [falling, partial curve]	-58.8%	29.1 µM [falling, single point]
COc1cc(SC)ccc1C(=O)OCC(=O)NCCNC(=O)COC(=O)c1ccc(SC)cc1OC	11.6 µM [falling, single point]		3.26 µM [rising, partial curve, poor fit]
Cc1cccc(NS(=O)(=O)c2c(C)n[nH]c2C)c1		19.7%	
O=[N+]([O-])c1cc(C(F)(F)F)ccc1N1CCCC(O)C1 (configuration not stated)		-52.1%	4.11 µM [falling, single point]
O=C(c1cc2nc(-c3cccs3)cc(C(F)(F)F)n2n1)N1CCCc2ccccc21	6.51 µM [falling, single point]	-11%	
CCN(C(=O)CCS(=O)(=O)c1cccc2nonc12)c1ccc(F)cc1	6.51 µM [falling, partial curve]	18.3%	
COc1ccccc1N1CCN(C(=O)c2ccc(CN3CCOCC3)cc2)CC1		47.8%	
C/C=C/c1ccccc1OCc1ccc(C(=O)O)o1		-16.1%	1.16 µM [falling, full curve]
Cn1c(-c2cc(Cl)ccc2O)nc2c1c(=O)[nH]c(=O)n2Cc1ccccc1	29.1 µM [rising, single point]	25.4%	
Cc1cc(C)cc(CSc2ccc(S(=O)(=O)N3CCCC3)cn2)c1	4.61 µM [rising, partial curve, poor fit]	-7.51%	
Cn1ccnc1Sc1ccc(C=O)cc1[N+](=O)[O-]		-17.2%	0.116 µM [falling, full curve, poor fit]
O=C(CN1CCN(c2ccccc2F)CC1)c1ccc2cc[nH]c2c1	3.26 µM [rising, single point]	-0.506%	
COc1ccc(/C=N/NC(=O)c2ccccc2Cl)cc1CSc1nc2ccccc2s1	0.92 µM [rising, full curve]	110%	0.651 µM [rising, full curve, poor fit]
COc1cccc(CNS(=O)(=O)c2ccc3c(c2)CC(C)N3C(=O)C2CCC2)c1 (configuration not stated)	4.11 µM [falling, single point]	-9.92%	
CCCN(CCC)CCNC(=O)C(NS(=O)(=O)c1ccc2c(c1)CCC(=O)N2)c1ccccc1 (configuration not stated)		-29.5%	
COc1cc(/C=C/C(=O)OCC(=O)N2CCCc3ccccc32)ccc1OC(F)F	3.66 µM [falling, full curve, poor fit]	-6.08%	
COc1ccc(CNC(=O)CCc2ccc(S(=O)(=O)N3CCCCCC3)cc2)cc1	20.6 µM [falling, single point]	-47.1%	16.4 µM [falling, single point]

Copied from the results shown for reference:
SMILES	AC50 [1]	cell number change	AC50 [2]
CC(C)CN(CC(C)C)C1=N/C(=C\c2ccco2)C(=O)N1c1ccccc1		43.8%	0.0651 µM [rising, full curve, poor fit]
NC(=O)COc1ccccc1C(=O)NC12CC3CC(CC(C3)C1)C2	23.1 µM [falling, single point]	11.3%	
CCCCc1ccc(-c2nc(NC(=O)C3C4CCC(O4)C3C(=O)O)sc2C)cc1 (configuration not stated)	3.26 µM [falling, partial curve]	-58.8%	29.1 µM [falling, single point]
